According to patent US20040115660A1 (published 2004):
No constants are given. Whether binding was seen depends on the method and setting. For some of these results: In cells and extracts the contact can be indirect. Some entries that bind do so weakly or less than the wild type.

Protein sequences, listed by entry. Tags and fused reporters are not part of them. Residues count along the entry.
UniProt Q01887, residues 35-594: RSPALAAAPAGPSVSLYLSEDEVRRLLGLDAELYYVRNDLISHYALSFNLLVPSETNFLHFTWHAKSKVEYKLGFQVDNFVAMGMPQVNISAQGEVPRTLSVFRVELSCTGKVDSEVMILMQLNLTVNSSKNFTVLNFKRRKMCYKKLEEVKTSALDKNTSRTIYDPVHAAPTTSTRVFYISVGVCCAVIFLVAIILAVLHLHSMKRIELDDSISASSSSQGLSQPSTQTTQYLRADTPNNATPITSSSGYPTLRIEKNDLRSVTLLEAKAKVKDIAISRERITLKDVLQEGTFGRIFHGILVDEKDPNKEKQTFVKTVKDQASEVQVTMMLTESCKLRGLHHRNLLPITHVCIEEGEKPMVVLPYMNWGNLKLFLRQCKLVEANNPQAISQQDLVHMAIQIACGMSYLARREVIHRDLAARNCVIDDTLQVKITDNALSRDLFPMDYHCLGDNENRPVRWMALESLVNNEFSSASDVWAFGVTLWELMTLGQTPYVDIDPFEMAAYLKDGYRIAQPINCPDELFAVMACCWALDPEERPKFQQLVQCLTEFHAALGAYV
UniProt Q9QZQ1, residues 1007-1093: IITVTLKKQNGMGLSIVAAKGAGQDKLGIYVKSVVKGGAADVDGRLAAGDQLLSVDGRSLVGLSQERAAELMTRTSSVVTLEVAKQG
UniProt P54763, residues 19-986: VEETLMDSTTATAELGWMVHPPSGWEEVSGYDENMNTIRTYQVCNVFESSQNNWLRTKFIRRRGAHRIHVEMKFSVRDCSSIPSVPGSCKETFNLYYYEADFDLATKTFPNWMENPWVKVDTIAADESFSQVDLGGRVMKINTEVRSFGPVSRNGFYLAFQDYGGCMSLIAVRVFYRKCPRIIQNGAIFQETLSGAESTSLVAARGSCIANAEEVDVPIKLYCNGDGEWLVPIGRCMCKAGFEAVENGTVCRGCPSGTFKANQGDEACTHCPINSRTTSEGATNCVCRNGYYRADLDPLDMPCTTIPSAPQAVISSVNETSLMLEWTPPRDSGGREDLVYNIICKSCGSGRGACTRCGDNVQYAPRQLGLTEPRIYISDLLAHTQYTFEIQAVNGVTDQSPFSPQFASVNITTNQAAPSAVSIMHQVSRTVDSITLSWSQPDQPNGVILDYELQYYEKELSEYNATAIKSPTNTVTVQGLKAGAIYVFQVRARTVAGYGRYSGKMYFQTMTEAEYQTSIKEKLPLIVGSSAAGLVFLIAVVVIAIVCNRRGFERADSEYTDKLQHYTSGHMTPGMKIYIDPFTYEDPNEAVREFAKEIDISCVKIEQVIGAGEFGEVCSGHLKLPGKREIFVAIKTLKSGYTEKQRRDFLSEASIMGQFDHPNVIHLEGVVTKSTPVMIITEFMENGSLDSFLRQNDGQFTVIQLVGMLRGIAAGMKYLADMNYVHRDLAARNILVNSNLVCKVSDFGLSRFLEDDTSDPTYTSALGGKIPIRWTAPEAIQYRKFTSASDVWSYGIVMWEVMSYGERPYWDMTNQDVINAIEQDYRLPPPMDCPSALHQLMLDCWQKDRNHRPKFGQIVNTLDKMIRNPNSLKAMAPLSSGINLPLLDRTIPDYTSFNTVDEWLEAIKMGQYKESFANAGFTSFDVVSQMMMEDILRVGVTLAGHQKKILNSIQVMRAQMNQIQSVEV
UniProt P54754, residues 30-993: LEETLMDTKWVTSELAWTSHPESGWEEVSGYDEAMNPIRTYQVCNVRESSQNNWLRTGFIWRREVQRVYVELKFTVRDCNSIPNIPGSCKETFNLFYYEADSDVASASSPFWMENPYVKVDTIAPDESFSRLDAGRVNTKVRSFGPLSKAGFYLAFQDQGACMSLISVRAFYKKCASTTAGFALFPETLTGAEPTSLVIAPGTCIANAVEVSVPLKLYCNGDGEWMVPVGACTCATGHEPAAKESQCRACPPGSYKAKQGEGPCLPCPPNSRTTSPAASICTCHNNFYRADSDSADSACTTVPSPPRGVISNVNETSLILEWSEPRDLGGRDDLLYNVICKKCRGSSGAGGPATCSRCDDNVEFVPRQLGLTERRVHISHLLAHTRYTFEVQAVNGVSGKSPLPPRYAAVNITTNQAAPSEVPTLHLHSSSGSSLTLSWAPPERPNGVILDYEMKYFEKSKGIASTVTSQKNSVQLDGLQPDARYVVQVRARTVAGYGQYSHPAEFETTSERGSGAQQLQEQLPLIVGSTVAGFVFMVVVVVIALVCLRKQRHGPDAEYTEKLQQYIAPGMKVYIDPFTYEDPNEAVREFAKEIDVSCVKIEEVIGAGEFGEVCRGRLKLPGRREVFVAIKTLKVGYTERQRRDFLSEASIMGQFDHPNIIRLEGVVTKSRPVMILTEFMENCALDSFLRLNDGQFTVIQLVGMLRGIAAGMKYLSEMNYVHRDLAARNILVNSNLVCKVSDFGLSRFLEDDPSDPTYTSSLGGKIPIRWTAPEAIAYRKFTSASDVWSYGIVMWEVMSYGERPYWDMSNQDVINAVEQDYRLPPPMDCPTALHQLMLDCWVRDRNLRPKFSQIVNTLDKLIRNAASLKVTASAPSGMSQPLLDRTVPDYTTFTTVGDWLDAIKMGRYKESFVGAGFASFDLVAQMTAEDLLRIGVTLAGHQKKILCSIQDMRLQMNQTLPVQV
UniProt Q15375, residues 28-998: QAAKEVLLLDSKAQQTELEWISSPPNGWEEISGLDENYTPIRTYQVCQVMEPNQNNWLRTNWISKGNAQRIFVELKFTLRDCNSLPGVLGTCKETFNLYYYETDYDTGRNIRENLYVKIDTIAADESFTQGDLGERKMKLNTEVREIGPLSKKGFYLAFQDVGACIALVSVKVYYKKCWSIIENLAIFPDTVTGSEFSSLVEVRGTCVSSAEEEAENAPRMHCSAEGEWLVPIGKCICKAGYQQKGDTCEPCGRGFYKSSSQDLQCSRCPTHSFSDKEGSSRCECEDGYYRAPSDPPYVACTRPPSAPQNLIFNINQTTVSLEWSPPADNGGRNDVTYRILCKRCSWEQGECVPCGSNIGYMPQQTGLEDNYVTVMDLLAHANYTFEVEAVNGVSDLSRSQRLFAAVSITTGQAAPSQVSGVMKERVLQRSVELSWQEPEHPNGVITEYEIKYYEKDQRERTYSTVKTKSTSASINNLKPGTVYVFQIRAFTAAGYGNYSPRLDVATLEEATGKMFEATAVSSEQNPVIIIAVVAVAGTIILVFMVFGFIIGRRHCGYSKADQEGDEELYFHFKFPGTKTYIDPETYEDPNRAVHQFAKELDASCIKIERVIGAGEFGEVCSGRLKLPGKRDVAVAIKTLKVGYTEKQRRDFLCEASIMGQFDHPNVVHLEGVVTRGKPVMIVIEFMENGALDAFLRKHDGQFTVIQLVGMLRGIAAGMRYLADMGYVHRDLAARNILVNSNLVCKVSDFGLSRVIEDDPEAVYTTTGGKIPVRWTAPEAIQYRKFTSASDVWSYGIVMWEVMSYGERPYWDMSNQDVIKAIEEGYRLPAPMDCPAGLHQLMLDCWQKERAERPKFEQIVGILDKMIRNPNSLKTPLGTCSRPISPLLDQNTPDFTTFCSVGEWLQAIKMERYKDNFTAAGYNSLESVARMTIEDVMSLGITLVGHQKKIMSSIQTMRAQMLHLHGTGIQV

How the values were obtained:
[1] = target: endogenous mouse RYK (mouse) (UniProt Q01887); test: blot overlay with GST.AF-6.PDZ at about 5 ug/mL, detected with anti-GST (FIG. 1e)
[2] = target: endogenous mouse RYK (mouse) (UniProt Q01887); test: anti-RYK immunoprecipitation from 13.5 dpc mouse head lysates, Western blot
[3] = target: endogenous mouse RYK (mouse) (UniProt Q01887); test: co-immunoprecipitation from mouse tissue lysates (FIG. 3d)
[4] = target: Myc2.RYK (double Myc epitope-tagged mouse RYK) (mouse) (UniProt Q01887); test: co-immunoprecipitation from transfected 293T cells, Western blot (FIG. 3a)
[5] = target: Myc2.RYK (double Myc epitope-tagged mouse RYK) (mouse) (UniProt Q01887); test: co-immunoprecipitation from cotransfected 293T cells, Western blot

| binding [1] | binding [2] | binding [3] | binding [4] | binding [5] | Substance |
| --- | --- | --- | --- | --- | --- |
| binds |  |  |  |  | GST.AF-6.PDZ (glutathione S-transferase fusion with the PDZ domain of mouse AF-6) (from UniProt Q9QZQ1 1007-1093) |
|  | binds | binds |  |  | endogenous mouse EphB2 (from UniProt P54763 19-986) (receptor) |
|  | binds | binds |  |  | endogenous mouse EphB3 (from UniProt P54754 30-993) (receptor) |
|  |  |  | binds | binds | human EphA7 (from UniProt Q15375 28-998) (receptor) |
